Drawing on PMC12153209, this text covers binding for 1 molecule.

By UniProt entry, the sequences of proteins in these tests, tags left out. Residues count along the entry.
UniProt Q9QUK6, residues 26-835: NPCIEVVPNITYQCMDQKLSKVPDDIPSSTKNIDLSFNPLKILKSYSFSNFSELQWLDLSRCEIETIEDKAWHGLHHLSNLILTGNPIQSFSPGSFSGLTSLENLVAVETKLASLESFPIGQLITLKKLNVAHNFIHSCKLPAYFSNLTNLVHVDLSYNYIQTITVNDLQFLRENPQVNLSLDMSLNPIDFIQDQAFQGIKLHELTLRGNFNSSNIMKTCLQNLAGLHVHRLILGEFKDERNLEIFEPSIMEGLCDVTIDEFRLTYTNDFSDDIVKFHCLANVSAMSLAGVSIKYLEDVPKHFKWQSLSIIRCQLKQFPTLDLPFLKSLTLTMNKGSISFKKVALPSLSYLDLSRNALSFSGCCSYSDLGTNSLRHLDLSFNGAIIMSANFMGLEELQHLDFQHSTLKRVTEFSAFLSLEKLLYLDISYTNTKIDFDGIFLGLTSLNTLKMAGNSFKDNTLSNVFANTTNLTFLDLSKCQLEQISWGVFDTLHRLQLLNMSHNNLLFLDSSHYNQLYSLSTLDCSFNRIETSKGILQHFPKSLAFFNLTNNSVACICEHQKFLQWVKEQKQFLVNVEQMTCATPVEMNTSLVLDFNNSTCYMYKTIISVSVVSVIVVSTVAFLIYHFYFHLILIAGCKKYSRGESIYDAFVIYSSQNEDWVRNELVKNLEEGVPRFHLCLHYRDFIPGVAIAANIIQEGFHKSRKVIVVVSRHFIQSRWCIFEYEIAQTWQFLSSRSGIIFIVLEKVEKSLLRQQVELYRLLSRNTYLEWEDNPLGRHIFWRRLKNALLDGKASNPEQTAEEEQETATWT

The experiment concerns the target Toll-like receptor 4 (TLR4) (mouse (endogenous in mouse synovial tissue)) (UniProt Q9QUK6). In words: co-IP; mouse synovial tissue lysed in NP-40 lysis buffer with protease inhibitor cocktail; immunoprecipitation with a TLR4 antibody at 4 °C, protein A+G agarose beads 4 h at 4 °C; isotype control antibody in parallel; Western blot. For orientation: Immunoblotting shows a protein as a band on a membrane.

No constants are given. Whether binding was seen depends on the method and setting. Binding seen in cells or lysates may run through a third protein. Some entries that bind do so weakly or less than the wild type.

B1: C-C motif chemokine receptor like 2 (CCRL2) (receptor, UniProt O35457 1-360)
chain: MDNYTVAPDDEYDVLILDDYLDNSGPDQVPAPEFLSPQQVLQFCCAVFAVGLLDNVLAVFILVKYKGLKNLGNIYFLNLALSNLCFLLPLPFWAHTAAHGESPGNGTCKVLVGLHSSGLYSEVFSNILLLVQGYRVFSQGRLASIFTTVSCGIVACILAWAMATALSLPESVFYEPRMERQKHKCAFGKPHFLPIEAPLWKYVLTSKMIILVLAFPLLVFIICCRQLRRRQSFRERQYDLHKPALVITGVFLLMWAPYNTVLFLSAFQEHLSLQDEKSSYHLDASVQVTQLVATTHCCVNPLLYLLLDRKAFMRYLRSLFPRCNDIPYQSSGGYQQAPPREGHGRPIELYSNLHQRQDII
Regarding B1, the binding entry was “binds”.
